According to PubChem BioAssay AID504834 (National Center for Advancing Translational Sciences (NCATS), 2011):
Out of some 320,000 compounds screened, about 22,000 (6.9%) were called active. Inconclusive results, whose numbers are uncertain, are shown with a selection of clear calls. The call rests on the fitted dose curve; in most records, active means well fitted inhibition curve with a large enough effect; inconclusive means small, poorly fitted or top-dose-only effect, or another doubt; inactive means no such curve, though single readings can be large or run the other way. A potency beside an inconclusive call is a rough fit, not a confirmed value.
On the % scale 0 is the no-effect control and ±100 the full control effect; potency means the concentration at half of the fitted maximal effect.

Experiment: Primary qHTS for delayed death inhibitors of the malarial parasite plastid, 96 hour incubation
Conditions: P. falciparum luciferase reporter growth; series mostly up to 28.7 µM
How it was run: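 96 h incubation, 37 C, 5% CO2, of luciferase-reporter P. falciparum-infected RBCs (2% hematocrit, 0.05% parasitemia final) with test compounds; endpoint luminescence.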
For `Nc1c(S(=O)(=O)c2cccs2)c2nc3ccccc3nc2n1CCc1ccccc1`, the Potency was active: 3.29 µM. With `O=[N+]([O-])c1cccnc1NCc1cccs1` the Potency was inconclusive: 1.47 µM [inhibitor, full curve]. In the case of `CCOC(=O)c1cc(C(=O)OCC)cc(-n2cc(O)c(C(=O)OCC)n2)c1`, the Potency is reported as inconclusive: 10.4 µM [inhibitor, single point]. For `CC(=O)c1ccc(N2CCN(C(=O)CCC(=O)Nc3ccc4nc(N5CCN(C)CC5)cc(C)c4c3)CC2)cc1`, the Potency was “inactive”. For `O=C(c1ccc(F)cc1)C1CCN(Cc2cn[nH]c2-c2ccccc2)CC1`, the Potency was inconclusive: 18.5 µM [inhibitor, single point]. For `CCOC(=O)c1sc(NC(=O)c2cccc(S(=O)(=O)N3c4ccccc4CC3C)c2)cc1C` (stereo not given), the Potency was inconclusive: 4.15 µM [inhibitor, partial curve, poor fit]. With `COc1ccc(N2CCN(C(=O)CCCC3=NS(=O)(=O)c4ccccc4N3)CC2)cc1` the Potency was inconclusive: 0.465 µM [inhibitor, full curve, poor fit]. For `Cc1ccc(C2=NC(=O)/C(=C/c3cc(O)c(O)c(Br)c3)S2)cc1`, the Potency was “inactive”. With `COc1ccc(-c2oc3ncn(CCN4CCOCC4)c(=N)c3c2-c2ccc(OC)cc2)cc1` the Potency was “inactive”. With `CCN1CCN(CCC(=O)Nc2ccccc2C)CC1` the Potency was “inactive”. For `Cc1cc(C)cc(C(=O)Nc2cccnc2)c1`, the Potency was inconclusive: 9.28 µM [inhibitor, partial curve]. With `CCCCNc1cc(=O)oc2ccccc12` the Potency was inconclusive: 4.15 µM [inhibitor, single point]. With `O=C(O)C1Nc2c(cccc2C(F)(F)F)C2C=CCC12` (stereo not given) the Potency was “inactive”. With `COc1ccc(CCNC(=O)CCC(=O)N2CCN(S(=O)(=O)c3ccccc3)CC2)cc1OC` the Potency was inconclusive: 7.38 µM [inhibitor, partial curve, poor fit]. For `COc1cc(OC)cc(C(=O)NC2=NCCS2)c1`, the Potency was “inactive”. In the case of `Cc1ccc(S(=O)(=O)NC2=NCN(C3CCN(Cc4ccccc4)CC3)CN2)cc1`, the Potency is reported as inconclusive: 18.5 µM [inhibitor, single point]. In the case of `COc1cc(C)ccc1OCc1cc(C(=O)N2CCCCCCC2)no1`, the Potency is reported as inconclusive: 18.5 µM [inhibitor, single point]. For `CC(=O)c1cccc(NC(=O)COc2cc3oc(=O)c(CC(C)O)c(C)c3cc2Cl)c1` (stereo not given), the Potency was active: 10.4 µM. In the case of `CC(=O)Nc1ccc(NC(=S)NC(=O)c2ccc(C(C)(C)C)cc2)cc1`, the Potency is reported as inconclusive: 19 µM [inhibitor, single point]. For `O=C1CN(Cc2ccccc2)C(=NCc2ccco2)S1`, the Potency was “inactive”. For `Cc1nc2cc(NC(=O)c3ccc([N+](=O)[O-])s3)ccc2s1`, the Potency was inconclusive: 4.65 µM [inhibitor, partial curve]. In the case of `CC1CCN(CC(=O)N2CCN(c3ccccc3)CC2)CC1`, the Potency is reported as “inactive”. In the case of `Cc1nc2ccccn2c1C(=O)CSc1ccccc1Cl`, the Potency is reported as inconclusive: 16.5 µM [inhibitor, partial curve, poor fit]. In the case of `Cc1cccc(Cn2nc(-n3cccc3)c3c(C)cc(C)nc32)c1`, the Potency is reported as inconclusive: 3.29 µM [inhibitor, full curve, poor fit]. In the case of `CC(NCC(=O)Nc1ccccc1C(=O)NC1CC1)c1ccccc1Cl` (stereo not given), the Potency is reported as inconclusive: 18.5 µM [inhibitor, single point]. With `COc1ccc(CC(=O)OC(C)C(=O)NC2CCCCC2C)cc1` (stereo not given) the Potency was “inactive”. In the case of `C/C=C\C=C/C(=O)Nc1cccc(C2=NOC3(C2)C[C@@H](C(N)=O)N(C(=O)c2ccc(Cl)cc2)C3)c1` (stereo not given in full), the Potency is reported as inconclusive: 18.5 µM [inhibitor, partial curve, poor fit]. In the case of `CN(Cc1ccc(Cl)cc1)C(=O)c1ccc(S(=O)(=O)NCc2ccco2)cc1`, the Potency is reported as inconclusive: 10.4 µM [inhibitor, partial curve, poor fit]. With `CCCCS(=O)(=O)/C=C\C=C/S(=O)(=O)CCCC` the Potency was inconclusive: 4.15 µM [inhibitor, partial curve]. For `Cc1ccc(C2=Nc3ccccc3N=C(c3ccco3)C2)c(O)c1`, the Potency was “inactive”. In the case of `CCN(CC)C(=O)c1ccc(NC(=O)CNC(C)c2cccc3ccccc23)cc1` (stereo not given), the Potency is reported as inconclusive: 10.4 µM [inhibitor, single point]. With `Cn1c(=O)c2c(nc(CN3CCN(c4ccccc4)CC3)n2CCN2CCOCC2)n(C)c1=O` the activity change, negative = inhibition was inactive: -3.52% [at 5.75 µM]. With `CCc1ccccc1Nc1nn2c(=O)c3ccc(C(=O)NCCCOC(C)C)cc3nc2s1` the Potency was inconclusive: 2.33 µM [inhibitor, full curve]. For `CCOc1ccc2nc(SCC(=O)Nc3nonc3C)[nH]c2c1`, the Potency was inconclusive: 5.86 µM [inhibitor, partial curve]. For `CCCn1nnc(NC(=O)c2ccc(-c3cccc(Cl)c3)o2)n1`, the Potency was inconclusive: 8.28 µM [inhibitor, partial curve]. With `CCCCCC(=O)NC(=S)Nc1ccc(NC(=O)c2ccco2)cc1` the Potency was inconclusive: 9.28 µM [inhibitor, partial curve, poor fit]. For `COc1ccc(Cl)cc1NC(=O)CN(C)C(=O)COc1ccccc1F`, the Potency was inconclusive: 1.47 µM [inhibitor, full curve]. With `COc1ccc(C(=O)NC(=S)Nc2ccc(CN3CCOCC3)cc2)cc1Cl` the Potency was inconclusive: 18.5 µM [inhibitor, single point]. In the case of `Oc1ccccc1CNc1cccc2cccnc12`, the Potency is reported as “inactive”. In the case of `COc1ccc(-n2c(C)nn(C)c2=O)cc1`, the Potency is reported as inconclusive: 4.15 µM [inhibitor, single point]. For `N#CCCN(C(=O)Nc1ccc(Cl)c(Cl)c1)c1ccccc1`, the Potency was inconclusive: 18.5 µM [inhibitor, single point]. For `COC(=O)[C@@H](c1ccccc1)N(C)S(=O)(=O)c1cccc(S(=O)(=O)N(C)[C@@H](C(=O)OC)c2ccccc2)c1`, the Potency was inconclusive: 3.29 µM [inhibitor, full curve, poor fit]. For `CCOC(=O)C(O)(c1ccc(N(CC)C(=O)COc2ccccc2)cc1)C(F)(F)F` (stereo not given), the Potency was “inactive”. For `O=S(=O)(NCc1ccccc1)c1ccc(S(=O)(=O)N2CCCCC2)cc1`, the Potency was active: 5.22 µM. With `Cc1cc(C(F)(F)F)nc(-n2cc(-c3ccccc3)nn2)n1` the Potency was inconclusive: 1.85 µM [inhibitor, full curve]. For `Cc1nc2cc(CO)ccc2n1C`, the Potency was active: 9.28 µM. With `Cc1ccccc1-n1c(SCC(=O)c2c(N)n(C)c(=O)n(C)c2=O)nnc1-c1cccnc1` the Potency was “inactive”. With `COC(=O)c1ccccc1NC(=O)CNC(=O)c1ccc(OC)cc1` the Potency was inconclusive: 3.29 µM [inhibitor, partial curve, poor fit]. In the case of `Cc1nn(CC(=O)c2ccccc2)c(=O)c2nn(-c3ccccc3F)c(C)c12`, the Potency is reported as inconclusive: 18.5 µM [inhibitor, single point]. In the case of `COc1ccc(CCNCC(O)Cn2c3ccccc3c3ccccc32)cc1OC` (stereo not given), the Potency is reported as inconclusive: 5.86 µM [inhibitor, partial curve]. For `CC12CCC(=O)N1C(C(=O)NCc1ccccc1Cl)CS2` (stereo not given), the Potency was “inactive”. For `Cc1c(NP(=O)(c2ccc(Br)cc2)c2ccc(Br)cc2)c(=O)n(-c2ccccc2)n1C`, the Potency was inconclusive: 6.57 µM [inhibitor, partial curve]. With `COc1ccccc1Nc1nc(NCCCN(C)C)nc(N)c1[N+](=O)[O-]` the Potency was inconclusive: 0.928 µM [inhibitor, full curve]. In the case of `O=C(c1cnn2c(C(F)(F)F)cc(-c3cccs3)nc12)N1CCN(C(c2ccccc2)c2ccccc2)CC1`, the Potency is reported as inconclusive: 18.5 µM [inhibitor, single point]. For `Cc1cccc2cc(C#N)c(NCc3ccccc3)nc12`, the Potency was “inactive”. In the case of `Cc1cc(=O)[nH]c2nnnn12`, the Potency is reported as “inactive”. With `CN(CC(=O)Nc1ccc(N2CCOCC2)cc1)C(=O)CSc1ccc(F)cc1` the Potency was inconclusive: 0.522 µM [inhibitor, full curve, poor fit]. For `CCCn1cc(CN2CCCC(CNC(=O)c3ccc(F)cc3)C2)c(C)n1` (stereo not given), the Potency was inconclusive: 4.15 µM [inhibitor, single point]. In the case of `COc1ccc(Br)c(C(=O)NC2CCCC2)c1`, the Potency is reported as “inactive”. In the case of `COc1ccc(N2CCN(CC(=O)Nc3sccc3C#N)CC2)cc1`, the Potency is reported as inconclusive: 3.7 µM [inhibitor, partial curve, poor fit]. With `COC(=O)C1CCCCN1C(=O)c1cc(COc2cccc3cnccc23)on1` (stereo not given) the Potency was “inactive”. With `COc1ccccc1C(CNC(=O)COc1cc(C)ccc1Cl)N1CCCC1` (stereo not given) the Potency was inconclusive: 11.7 µM [inhibitor, single point]. In the case of `CN(C)C(C)(C)C#CCC(c1ccccc1)c1ccccc1`, the Potency is reported as inconclusive: 2.33 µM [inhibitor, single point]. For `O=C1CC2c3ccccc3C1C1C(=O)N(CCO)C(=O)C21` (stereo not given), the Potency was “inactive”. With `CCn1c2ccccc2c2cc(NC(=O)CSc3nnc(-c4ccc(OC)cc4)n3N)ccc21` the Potency was inconclusive: 2.62 µM [inhibitor, full curve]. In the case of `CC(=O)N1C(C(=O)O)CSC1c1ccc(C)cc1` (stereo not given), the Potency is reported as inconclusive: 18.5 µM [inhibitor, single point]. For `CCC(C)(C)NC(=O)c1cccc(NC(=O)C(C)C)c1`, the Potency was inconclusive: 11.7 µM [inhibitor, single point]. For `CCC(Cc1ccccc1)NC(=O)CN1C(=O)CSc2ncccc21` (stereo not given), the Potency was inconclusive: 9.28 µM [inhibitor, partial curve, poor fit]. With `N/C(=N\OC(=O)CCCOc1ccc(Cl)cc1Cl)c1ccccn1` the Potency was inconclusive: 18.5 µM [inhibitor, single point]. In the case of `Cc1cc(C)c(S(=O)(=O)N2CCN(c3ccc([N+](=O)[O-])c(-n4nc(C)cc4C)c3)CC2)c(C)c1`, the Potency is reported as active: 1.31 µM.
